Source: the supplement of paper PMC7661543
The effect of the compound repeats well; differences between the knockouts mostly do not.

Test system: MDA-MB-231
Test: relative cell number vs DMSO control (72 h) (% of DMSO); higher = less growth inhibition (more cells)
Protocol: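 QMAP-Seq: a pool of 5 breast cancer cell lines (ZR-75-1, SKBR3, HCC-38, MDA-MB-231, BT-20), each carrying 12 doxycycline-inducible Cas9 sgRNA perturbations (11 knockouts plus non-targeting sgNT), was treated with compounds for 72 h at four 10-fold doses (10 nM-10 uM or 1 nM-1 uM range). Barcodes were amplified and sequenced, and cell number was interpolated from 293T spike-in standard curves. The result is expressed as % of the median of DMSO wells. Two biological replicates.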

N#Cc1ccc(C(c2ccc(C#N)cc2)n2cncn2)cc1 [Letrozole]
Details | relative cell number
sgRNA knockout: sgATF3, 1 nM | 110
sgRNA knockout: sgATF3, 10 nM | 94.2
sgRNA knockout: sgATF3, 100 nM | 110
sgRNA knockout: sgATF3, 1000 nM | 98.9
sgRNA knockout: sgATF4, 1 nM | 124
sgRNA knockout: sgATF4, 10 nM | 109
sgRNA knockout: sgATF4, 100 nM | 74.6
sgRNA knockout: sgATF4, 1000 nM | 81
sgRNA knockout: sgATF6, 1 nM | 84.9
sgRNA knockout: sgATF6, 10 nM | 58.9
sgRNA knockout: sgATF6, 100 nM | 80.7
sgRNA knockout: sgATF6, 1000 nM | 93.9
sgRNA knockout: sgATG7, 1 nM | 86.5
sgRNA knockout: sgATG7, 10 nM | 67.3
sgRNA knockout: sgATG7, 100 nM | 86.2
sgRNA knockout: sgATG7, 1000 nM | 94.4
sgRNA knockout: sgERN1, 1 nM | 97.8
sgRNA knockout: sgERN1, 10 nM | 110
sgRNA knockout: sgERN1, 100 nM | 73.3
sgRNA knockout: sgERN1, 1000 nM | 129
sgRNA knockout: sgHSF1, 1 nM | 102
sgRNA knockout: sgHSF1, 10 nM | 97.3
sgRNA knockout: sgHSF1, 100 nM | 77.5
sgRNA knockout: sgHSF1, 1000 nM | 110
sgRNA knockout: sgHSF2, 1 nM | 107
sgRNA knockout: sgHSF2, 10 nM | 69
sgRNA knockout: sgHSF2, 100 nM | 122
sgRNA knockout: sgHSF2, 1000 nM | 82.9
sgRNA knockout: sgKEAP1, 1 nM | 97.9
sgRNA knockout: sgKEAP1, 10 nM | 95.4
sgRNA knockout: sgKEAP1, 100 nM | 111
sgRNA knockout: sgKEAP1, 1000 nM | 108
sgRNA knockout: sgNFE2L2, 1 nM | 84.8
sgRNA knockout: sgNFE2L2, 10 nM | 67.7
sgRNA knockout: sgNFE2L2, 100 nM | 115
sgRNA knockout: sgNFE2L2, 1000 nM | 109
sgRNA knockout: sgSLC35F2, 1 nM | 83
sgRNA knockout: sgSLC35F2, 10 nM | 81.9
sgRNA knockout: sgSLC35F2, 100 nM | 90.8
sgRNA knockout: sgSLC35F2, 1000 nM | 94.6
sgRNA knockout: sgXBP1, 1 nM | 71.7
sgRNA knockout: sgXBP1, 10 nM | 96
sgRNA knockout: sgXBP1, 100 nM | 92.7
sgRNA knockout: sgXBP1, 1000 nM | 99.2

C[C@]1(c2nc3c(C(N)=O)cccc3[nH]2)CCCN1 [Veliparib]
Details | relative cell number
sgRNA knockout: sgATF3, 10 nM | 120
sgRNA knockout: sgATF3, 100 nM | 123
sgRNA knockout: sgATF3, 1000 nM | 93
sgRNA knockout: sgATF3, 10000 nM | 81.4
sgRNA knockout: sgATF4, 10 nM | 161
sgRNA knockout: sgATF4, 100 nM | 160
sgRNA knockout: sgATF4, 1000 nM | 123
sgRNA knockout: sgATF4, 10000 nM | 106
sgRNA knockout: sgATF6, 10 nM | 95.7
sgRNA knockout: sgATF6, 100 nM | 113
sgRNA knockout: sgATF6, 1000 nM | 82
sgRNA knockout: sgATF6, 10000 nM | 77.6
sgRNA knockout: sgATG7, 10 nM | 121
sgRNA knockout: sgATG7, 100 nM | 133.8
sgRNA knockout: sgATG7, 1000 nM | 96.9
sgRNA knockout: sgATG7, 10000 nM | 89.4
sgRNA knockout: sgERN1, 10 nM | 137
sgRNA knockout: sgERN1, 100 nM | 105.69
sgRNA knockout: sgERN1, 1000 nM | 98.5
sgRNA knockout: sgERN1, 10000 nM | 85.9
sgRNA knockout: sgHSF1, 10 nM | 115.1
sgRNA knockout: sgHSF1, 100 nM | 112
sgRNA knockout: sgHSF1, 1000 nM | 86.7
sgRNA knockout: sgHSF1, 10000 nM | 85
sgRNA knockout: sgHSF2, 10 nM | 120
sgRNA knockout: sgHSF2, 100 nM | 114
sgRNA knockout: sgHSF2, 1000 nM | 99.1
sgRNA knockout: sgHSF2, 10000 nM | 75.5
sgRNA knockout: sgKEAP1, 10 nM | 114
sgRNA knockout: sgKEAP1, 100 nM | 121
sgRNA knockout: sgKEAP1, 1000 nM | 91.6
sgRNA knockout: sgKEAP1, 10000 nM | 80.8
sgRNA knockout: sgNFE2L2, 10 nM | 117
sgRNA knockout: sgNFE2L2, 100 nM | 118
sgRNA knockout: sgNFE2L2, 1000 nM | 92.7
sgRNA knockout: sgNFE2L2, 10000 nM | 80.1
sgRNA knockout: sgSLC35F2, 10 nM | 100
sgRNA knockout: sgSLC35F2, 100 nM | 113
sgRNA knockout: sgSLC35F2, 1000 nM | 93.7
sgRNA knockout: sgSLC35F2, 10000 nM | 89.8
sgRNA knockout: sgXBP1, 10 nM | 116
sgRNA knockout: sgXBP1, 100 nM | 129
sgRNA knockout: sgXBP1, 1000 nM | 83.3
sgRNA knockout: sgXBP1, 10000 nM | 96

COc1cccc2c1C(=O)c1c(O)c3c(c(O)c1C2=O)C[C@@](O)(C(=O)CO)C[C@@H]3O[C@H]1C[C@H](N)[C@H](O)[C@H](C)O1 [Doxorubicin]
Details | relative cell number
sgRNA knockout: sgATF3, 10 nM | 79.7
sgRNA knockout: sgATF3, 100 nM | 20.9
sgRNA knockout: sgATF3, 1000 nM | 23.4
sgRNA knockout: sgATF3, 10000 nM | 6.23
sgRNA knockout: sgATF4, 10 nM | 98.4
sgRNA knockout: sgATF4, 100 nM | 27.8
sgRNA knockout: sgATF4, 1000 nM | 22.8
sgRNA knockout: sgATF4, 10000 nM | 15.6
sgRNA knockout: sgATF6, 10 nM | 74.5
sgRNA knockout: sgATF6, 100 nM | 31
sgRNA knockout: sgATF6, 1000 nM | 20.3
sgRNA knockout: sgATF6, 10000 nM | 11.3
sgRNA knockout: sgATG7, 10 nM | 68.4
sgRNA knockout: sgATG7, 100 nM | 30.1
sgRNA knockout: sgATG7, 1000 nM | 16.7
sgRNA knockout: sgATG7, 10000 nM | 7.94
sgRNA knockout: sgERN1, 10 nM | 60.7
sgRNA knockout: sgERN1, 100 nM | 26.2
sgRNA knockout: sgERN1, 1000 nM | 14
sgRNA knockout: sgERN1, 10000 nM | 8.1
sgRNA knockout: sgHSF1, 10 nM | 67.1
sgRNA knockout: sgHSF1, 100 nM | 22.7
sgRNA knockout: sgHSF1, 1000 nM | 16.8
sgRNA knockout: sgHSF1, 10000 nM | 11.12
sgRNA knockout: sgHSF2, 10 nM | 95.4
sgRNA knockout: sgHSF2, 100 nM | 17.3
sgRNA knockout: sgHSF2, 1000 nM | 21
sgRNA knockout: sgHSF2, 10000 nM | 7.83
sgRNA knockout: sgKEAP1, 10 nM | 74.6
sgRNA knockout: sgKEAP1, 100 nM | 34.2
sgRNA knockout: sgKEAP1, 1000 nM | 20.4
sgRNA knockout: sgKEAP1, 10000 nM | 8.64
sgRNA knockout: sgNFE2L2, 10 nM | 66.4
sgRNA knockout: sgNFE2L2, 100 nM | 21.96
sgRNA knockout: sgNFE2L2, 1000 nM | 13.1
sgRNA knockout: sgNFE2L2, 10000 nM | 7.98
sgRNA knockout: sgSLC35F2, 10 nM | 63.1
sgRNA knockout: sgSLC35F2, 100 nM | 23.5
sgRNA knockout: sgSLC35F2, 1000 nM | 16.8
sgRNA knockout: sgSLC35F2, 10000 nM | 6.4
sgRNA knockout: sgXBP1, 10 nM | 72.6
sgRNA knockout: sgXBP1, 100 nM | 25.5
sgRNA knockout: sgXBP1, 1000 nM | 16.5
sgRNA knockout: sgXBP1, 10000 nM | 7.71
